Laboratory results as given in PubChem BioAssay AID493014 (National Center for Advancing Translational Sciences (NCATS), 2011).
The list shows a part of the results. The main result of the screen is listed elsewhere. These columns were measured beside it and carry no call. Most of these compounds were active or inconclusive in the main read-out, so they are no random draw. The note in brackets gives the kind of curve behind each potency; many fits are weak.

Experiment: qHTS Assay to Find Inhibitors of Chronic Active B-Cell Receptor Signaling
Settings: ABC-DLBCL IkBa-CBG/CBR reporter, luminescence ratio (green luciferase fused to IkBa over red control in TMD8 lymphoma cells), 4 h
In short: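 TMD8 ABC-DLBCL cells carrying doxycycline-inducible green luciferase fused to IkappaBalpha plus unfused red luciferase were exposed to compounds (up to 46 uM) for 4 hrs at 37C. Activity came from the overlap-corrected green/red luminescence ratio.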

[1] = measured here: CBR red luminescence, cell number
[2] = measured here: IkBa-CBG green luminescence

Row | SMILES | AC50 [1] | AC50 [2]
1 | O=C(N1CCN(c2ccccn2)CC1)C(Cl)(Cl)Cl | 1.64 µM [rising, partial curve] | 
2 | O=C(O)c1cccc(Cn2c(Cl)c(/C=N/NC(=O)c3ccc(O)cc3)sc2=O)c1 | 7.08 µM [falling, partial curve] | 
3 | O=C(Cc1ccc(Cl)cc1)Nc1ccc(C(=O)N2CCCCC2)cc1 | 12.6 µM [falling, partial curve] | 
4 | CN(C)c1ccc(/C=N\NC(=O)c2csnn2)cc1 | 7.08 µM [falling, full curve] | 
5 | c1ccc(CCNCC2COc3ccccc3O2)cc1 (stereo unspecified) | 5.62 µM [rising, single point] | 
6 | Cc1ccc(/C=N/Nc2nc(Cl)c(Cl)cc2Cl)s1 | 2.24 µM [rising, partial curve, poor fit] | 
7 | O=C(CCC(=O)OCC(=O)c1ccc([N+](=O)[O-])cc1)NC1CCCCC1 | 23.1 µM [falling, single point] | 
8 | C/C(CC(=O)Nc1ccc(N(C)C)cc1)=N\NC(=O)c1ccccn1 | 25.1 µM [falling, partial curve] | 
9 | O=C(CCN1C(=O)/C(=C/c2cccs2)SC1=S)Nc1ccc(O)cc1 | 0.316 µM [falling, full curve, poor fit] | 
10 | COc1cc(OC)cc(C(=O)NCCSc2c[nH]c3ccccc23)c1 | 11.2 µM [falling, partial curve, poor fit] | 
11 | CSc1ccc(/C=N/NC(=O)COc2ccc(Br)cc2Cl)cc1 | 20.6 µM [rising, single point] | 
12 | O=C1CCC(=O)N1c1ccccc1-c1ccccc1 | 10 µM [falling, partial curve] | 
13 | O=C(O)/C=C/c1ccc(-c2cccc(C(F)(F)F)c2)o1 | 7.94 µM [falling, partial curve, poor fit] | 
14 | COc1cc2c(cc1NC(=O)CSc1nnc(Cc3cccs3)n1C)oc1ccccc12 |  | 20.6 µM [rising, partial curve, poor fit]
15 | O=c1c(Cl)c(NC2CC2)cnn1-c1ccccc1 | 3.16 µM [rising, single point] | 
16 | O=C(Cn1cnc2c(oc3ccccc32)c1=O)c1ccccc1 | 2.51 µM [rising, partial curve, poor fit] | 
17 | COc1ccccc1-c1nnc(SCC(=O)NC2CCS(=O)(=O)C2)n1CCc1ccccc1 (stereo unspecified) | 2.59 µM [rising, partial curve] | 
18 | O=Cc1c(Sc2ccccc2)nc2ccccn2c1=O | 13 µM [falling, partial curve] | 
19 | N#Cc1c(N2CCCCC2)nc(N)c2c(N)nc3c(c12)CC(CCl)O3 (stereo unspecified) | 0.251 µM [falling, full curve, poor fit] | 
20 | COc1ccc(-n2c(=S)[nH]c3c(oc4ccccc43)c2=O)cc1 | 16.4 µM [falling, single point] | 
21 | Cc1ccc(O)c(/C=N/NC(=O)c2[nH]ncc2Br)c1 | 2.91 µM [falling, partial curve] | 

Row | SMILES | AC50 [1] | AC50 [2]
22 | O=C(Nc1cccc(Cl)c1Cl)c1ccc(-c2ccccc2)cc1 | 4.47 µM [falling, full curve, poor fit] | 
23 | Cc1ccccc1C(=O)NC(C(N)=O)P(=O)(OC(C)C)OC(C)C (stereo unspecified) | 0.1 µM [rising, full curve, poor fit] | 
24 | O=C(Nc1nnc(-c2ccccc2Cl)o1)c1ccco1 | 10.3 µM [falling, partial curve, poor fit] | 
25 | Cc1cc(C)cc(C(=O)NCCCc2ccccc2)c1 | 3.55 µM [rising, partial curve, poor fit] | 
26 | COC(=O)c1cc2oc(C)cc2n1CC(=O)N(C)c1ccccc1 | 16.4 µM [rising, partial curve] | 
27 | CN(c1ccccc1)S(=O)(=O)c1ccc2[nH]c(=O)oc2c1 | 35.5 µM [rising, single point] | 
28 | COc1cc2[nH]c3c(=O)n4c(nc3c2cc1OC)SCCC4 | 25.1 µM [falling, single point] | 
29 | Cc1cccc(C(=O)NNC(=O)c2cccc([N+](=O)[O-])c2)c1 | 10 µM [falling, partial curve] | 
30 | CCc1nnc(NC(=O)C2Cc3ccccc3CN2S(=O)(=O)c2c(C)c(C)cc(C)c2C)s1 (stereo unspecified) | 6.51 µM [rising, single point] | 
31 | CCn1c(=O)cc(C(=O)OC)sc1=Nc1ccc(F)c(F)c1 | 1.84 µM [falling, full curve] | 
32 | O=C(O)Cc1sc(Nc2ccc(F)cc2)nc1-c1cccs1 | 35.5 µM [falling, single point] | 
33 | CCS(=O)(=O)c1c([N+](=O)[O-])ncn1C | 18.4 µM [falling, partial curve, poor fit] | 23.1 µM [rising, partial curve, poor fit]
34 | COC(=O)c1sccc1NC(=O)c1ccc(C(C)C)cc1 | 0.251 µM [rising, full curve] | 
35 | O=C(NC1CCCCC1)c1cc(C2CC2)on1 | 5.01 µM [falling, partial curve, poor fit] | 
36 | CCn1c(SCC(=O)Nc2ccc(Cl)cc2)nnc1C1CC1 | 8.2 µM [falling, partial curve, poor fit] | 
37 | CCOc1cc(/C=N/n2c(C)nc3ccccc3c2=O)ccc1O | 2.51 µM [falling, full curve] | 
38 | COc1cc2c(cc1OC)C1O[C@](CCCCN3C(=O)c4ccccc4C3=O)(C2)OC2=C1C(=O)OC1(CCCCC1)C2 |  | 3.55 µM [rising, partial curve, poor fit]
39 | Cc1cc(C)c(NC(=O)c2cn3c4c(c(N5CCN(C)CC5)c(F)cc4c2=O)OCC3C)c(C)c1 (stereo unspecified) | 0.411 µM [falling, full curve, poor fit] | 
40 | Cc1cc(NC(=O)CSCC(=O)N(c2ccc(F)cc2)C(C(=O)NC2CCCCC2)c2ccc(O)c(O)c2)no1 (stereo unspecified) | 5.17 µM [falling, partial curve] | 
41 | O=C(Nc1cccc(C(F)(F)F)c1)N1CCC(c2nc(-c3ccc(F)cc3)no2)CC1 | 25.9 µM [falling, single point] | 
42 | Cc1ccccc1NC(=O)CSc1nc(-c2ccccc2)cn1-c1ccccc1F | 35.5 µM [falling, single point] | 

Ordered by SMILES length (low to high): part of the list above
Row | SMILES | AC50 [1] | AC50 [2]
35 | O=C(NC1CCCCC1)c1cc(C2CC2)on1 | 5.01 µM [falling, partial curve, poor fit] | 
25 | Cc1cc(C)cc(C(=O)NCCCc2ccccc2)c1 | 3.55 µM [rising, partial curve, poor fit] | 
24 | O=C(Nc1nnc(-c2ccccc2Cl)o1)c1ccco1 | 10.3 µM [falling, partial curve, poor fit] | 
36 | CCn1c(SCC(=O)Nc2ccc(Cl)cc2)nnc1C1CC1 | 8.2 µM [falling, partial curve, poor fit] | 
37 | CCOc1cc(/C=N/n2c(C)nc3ccccc3c2=O)ccc1O | 2.51 µM [falling, full curve] | 
22 | O=C(Nc1cccc(Cl)c1Cl)c1ccc(-c2ccccc2)cc1 | 4.47 µM [falling, full curve, poor fit] | 
23 | Cc1ccccc1C(=O)NC(C(N)=O)P(=O)(OC(C)C)OC(C)C (stereo unspecified) | 0.1 µM [rising, full curve, poor fit] | 
42 | Cc1ccccc1NC(=O)CSc1nc(-c2ccccc2)cn1-c1ccccc1F | 35.5 µM [falling, single point] | 
30 | CCc1nnc(NC(=O)C2Cc3ccccc3CN2S(=O)(=O)c2c(C)c(C)cc(C)c2C)s1 (stereo unspecified) | 6.51 µM [rising, single point] | 
39 | Cc1cc(C)c(NC(=O)c2cn3c4c(c(N5CCN(C)CC5)c(F)cc4c2=O)OCC3C)c(C)c1 (stereo unspecified) | 0.411 µM [falling, full curve, poor fit] | 
40 | Cc1cc(NC(=O)CSCC(=O)N(c2ccc(F)cc2)C(C(=O)NC2CCCCC2)c2ccc(O)c(O)c2)no1 (stereo unspecified) | 5.17 µM [falling, partial curve] | 

The list continues:

Row | SMILES | AC50 [1] | AC50 [2]
43 | CCOC(=O)c1sc2nccc(N(C)C)c2c1N=CNOC | 2.91 µM [rising, single point] | 
44 | N=c1c2c3c(sc2nc2n1CCCCC2)CCCCC3 | 14.1 µM [rising, partial curve, poor fit] | 
45 | CCOc1ccc(S(=O)(=O)N2CCN(C(=O)c3ccco3)CC2)cc1 | 4.47 µM [rising, partial curve, poor fit] | 
46 | COc1ccccc1OCc1ccc(C(=O)Nc2ccc(Cl)cn2)o1 | 0.398 µM [falling, full curve, poor fit] | 
47 | Cc1cc(=O)n2[nH]c(-c3ccc(F)cc3)cc2n1 | 10 µM [falling, partial curve] | 
48 | CCOC(=O)c1c(NC(=O)c2nn(CC)cc2Br)sc(C)c1C | 8.2 µM [falling, partial curve, poor fit] | 
49 | Cc1ccc(Cl)cc1Nc1nc(-c2sc(NC(=O)c3ccccc3)nc2C)cs1 | 0.282 µM [falling, full curve, poor fit] | 
50 | O=c1cc(-c2c(O)c3ccccc3n(Cc3ccccc3)c2=O)[nH][nH]1 | 5.01 µM [rising, single point] | 
51 | Cc1ccc(-c2nnn3c2nc(NCCc2ccc(S(N)(=O)=O)cc2)c2ccccc23)cc1 | 0.206 µM [falling, full curve, poor fit] | 
52 | Cc1noc(/C=C/c2ccco2)c1S(=O)(=O)N1CCC(C(=O)Nc2ccc(Cl)cn2)CC1 | 8.2 µM [falling, partial curve, poor fit] | 29.1 µM [rising, single point]
53 | COc1cccc(-n2nnnc2S(C)(=O)=O)c1 | 4.11 µM [falling, full curve] | 4.61 µM [rising, partial curve, poor fit]
54 | COc1ccc(NC(=O)c2ccccc2Oc2ccccc2)cc1 | 1.12 µM [rising, full curve, poor fit] | 
55 | O=C1C2=C(C(c3ccccc3)=NCCN2)C(c2cccc([N+](=O)[O-])c2)N1c1ccccc1 (stereo unspecified) | 12.6 µM [falling, single point] | 
56 | Cc1ccc(C)c(NC(=O)CNS(=O)(=O)c2ccccc2)c1 | 0.184 µM [rising, full curve, poor fit] | 
57 | CCc1ccc2[nH]c(=O)c(CN(CCCN3CCOCC3)C(=O)Nc3ccccc3)cc2c1 | 3.66 µM [rising, partial curve, poor fit] | 
58 | COc1ccc(N(CCC#N)C(=O)/C(C#N)=C\c2cccs2)cc1 | 8.91 µM [rising, partial curve, poor fit] | 
59 | COc1cc2c(cc1OC)CN(C(=O)c1ccc(N3CCCC3)c([N+](=O)[O-])c1)CC2 | 2.06 µM [rising, partial curve, poor fit] | 
60 | CS(=O)(=O)N(CC(=O)N1CCc2ccccc2C1)Cc1ccc(Cl)cc1 | 18.4 µM [falling, single point] | 
61 | CCOC(=O)C1CCCN(S(=O)(=O)c2cc(Br)cc3c2N(C(C)=O)CC3)C1 (stereo unspecified) | 25.1 µM [rising, partial curve, poor fit] | 
62 | CCOc1ccccc1NC(=S)N1CCC(NC(=O)c2ccco2)CC1 | 0.316 µM [rising, full curve, poor fit] | 
63 | CNC(=S)N(CCc1c(C)[nH]c2ccc(F)cc12)Cc1ccco1 | 35.5 µM [falling, single point] | 
